According to patent publication US5783434A, “Cathepsin and methods and compositions for inhibition thereof” (priority 1995, dated 1998):
Some results were stated once for a whole list of compounds, not compound by compound.

Tested on: β-amyloid production in 293 751 SWE cells
Assay: Cellular screen for inhibition of β-amyloid peptide production (ELISA, MTT-normalised)
Type: cell-based, human
Conditions: two hour pretreatment plus two hours

Which “reduction of β-amyloid peptide production as compared to control” value does the source give for CON(C)C(=O)[C@H](Cc1c[nH]c2ccccc12)NC(=O)C(O)(c1ccccc1)c1ccccc1 [Example 44] here?
The value was “able to reduce β-amyloid peptide production as compared to control”.
